According to PMC7072537, “Characterization of a Novel Mannose-Binding Lectin with Antiviral Activities from Red Alga, Grateloupia chiangii” (Biomolecules, 2020):

Test system: T1, G. chiangii lectin (GCL)
T1 construct: N-terminus VVSNRLVSGEXLHR
Assay: glycan microarray
Type: binding, Grateloupia chiangii
Conditions: biotinylated GCL 50 μg/mL, Cy3-equivalent streptavidin; glycan immobilised through spacer; labelled protein

Substance | RFU (Normalized) / GCL [RFU]
β-Gal-Sp [G0002] | 2165 ± 237
Maltotetraose-β-Sp1 [G0080] | 2577 ± 351
Maltohexaose-β-Sp1 [G0082] | 7524 ± 1976
Gal-β-1,4-Glc-β-Sp [G0016] | 1260 ± 126
Gal-α-1,4-Gal-β-1,4-Glc-β-Sp [G0018] | 1124 ± 47
GalNAc-β-1,3-Gal-β-1,4-Glc-β-Sp [G0020] | 1092 ± 92
Man-α-1,6-(Man-α-1,3-)Man-α-1,6-(Gal-β-1,4-GlcNAc-β-1,2-Man-α-1,3-)Man-β-1,4-GlcNAc-β-1,4-GlcNAc-Sp5 [N-011] | 1148 ± 173
β-GlcNAc-Sp [G0006] | 1104 ± 133
Man-α-1,6-(Man-α-1,3-)Man-α-1,6-[Gal-β-1,4-(Fuc-α-1,3-)GlcNAc-β-1,2-Man-α-1,3-]Man-β-1,4-GlcNAc-β-1,4-GlcNAc-Sp5 [N-014] | 1129 ± 151
α-Man-Sp [G0003] | 2093 ± 294
Glc-α-1,2-Gal-α-Sp [G0048] | 1173 ± 110
β-Glc-Sp [G0001] | 2273 ± 544
Maltoheptaose-β-Sp1 [G0083] | 8132 ± 1810
Glc-α-1,4-Glc-β-Sp1 [G0076] | 1238 ± 28
Man-α-1,6-(Man-α-1,3-)Man-α-1,6-(GlcNAc-β-1,2-Man-α-1,3-)Man-β-1,4-GlcNAc-β-1,4-GlcNAc-Sp5 [N-010] | 1142 ± 116
